Screening data

Source: PubChem BioAssay AID1159506 (NCATS, 2015).

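Luminescence from an EWS-FLI1 target-promoter (NR0B1) reporter, set against a CMV-promoter reporter, two days after silencing single genes in TC32 Ewing sarcoma cells. Each siRNA was applied at 20 nM. A z-score of the log NR0B1-over-CMV signal, less the median of siRNAs with the same seed; more negative means a stronger specific loss of the NR0B1 reporter.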

This is part of the screen; most of the strongest results are not listed here. Sequences are the guide (antisense) strand, without overhang.

| siRNA | target gene | seed-corrected z-score |
|---|---|---|
| `UGUGGUCAAACAUAGCUUG` | RTCB | -0.4645 |
| `AGAUUUUAUAUUUCGCUCC` | PCNP | 1.448 |
| `UUUCUGUCAUGAACCGUGC` | POMGNT2 | -0.4493 |
| `UAUAUUGACCGAGUAAUUC` | PDGFD | 0.6523 |
| `UGCAAUUCAUGCUUGAUCC` | CFL1 | 0.1721 |
| `UAAUGGUCUAGAAACGAUG` | OXGR1 | -0.3189 |
| `UUUGUAGGAAGGUGGAUAG` | CNR2 | -0.9917 |
| `UACUGGUCCCACUUAUCCC` | CHERP | 0.2303 |
| `UCCACAAUCAAGACAUUCU` | HPRT1 | 0.5711 |
| `UCAUACAUGACCUCAGAGC` | CNIH2 | 0.5246 |
| `UCCGGGAUAAGCAAAGUGC` | AGK | 0.0242 |
| `UUCAAAGUAACUCUCCAGG` | CCL23 | 0.01502 |
| `UAGUUGCUAACUGAUCCCG` | PRKAA1 | -1.87 |
| `AAUCUGGUCAAAUAGGUCA` | MOGAT2 | -0.4004 |
| `UACUUCUCGGUCAUAGUUC` | POU6F2 | -0.004513 |
| `AAUACACCCAGUCAAAGCC` | IHH | 0.6178 |
| `UUUGGGUGGAGAACUAGUA` | LIN52 | -1.079 |
| `AUCGCAUACACCUUGGUCC` | PELP1 | -0.7338 |
| `UUGCAUCAUACUUUCGUGG` | NUFIP1 | 1.089 |
| `UCAUUAAUGAUCAUUUUGC` | EIF3C | 1.971 |
| `AGUAUAAUGACAGAUGUUG` | TIFA | 1.285 |
| `UGCAUCACCAUGGUCUCCU` | KLHL21 | -0.8313 |
| `UUGGGACAGUGGAUGUAGC` | LRRC75A | -0.2894 |
| `UAGACUGCAAUGACUGUCC` | OR1K1 | -0.4645 |
| `UUGAUGAUGGUGUCUAUGC` | GCLC | -0.357 |
| `UUAACUUCUCCACAAUUGC` | ANKRD1 | 0.7178 |
| `AUUCUUUCUAUCAUUGCCC` | STK35 | 0.5132 |
| `AUAGAAUCGCGAAUGCAGC` | CIB2 | -0.1899 |
| `UAAGUUGAGGGCAUUAUAG` | FBXO21 | 0.345 |
| `AAUGCAAUCAAGGGUGUUC` | TSR1 | 1.198 |
| `UUCGUAAUCGUCGUAGCCG` | MYO15A | 0.4895 |
| `UACGUUCCCUUUGAGUAGG` | KLHL23 | -0.08964 |
| `AUAGGUACUCGCGAUGUCC` | NEDD4L | -0.06401 |
| `UAGUUGACAAAUCUACAGG` | RANBP2 | 0.2231 |
| `UUCUAUGACAUACUCCUCC` | TOE1 | -0.8116 |
| `UAUGCAAACACCUUGUCGU` | LDLRAP1 | -0.01387 |
| `UCCGUCGUAACGUAUCUCG` | TFAP2D | 0.9058 |
| `UUUGAGUCUUAGUUCCUCG` | GPR151 | -0.2812 |
| `UCAGCUCCUUCUCUACGGC` | DNASE1L1 | 0.2248 |
| `AUUGAUCUGAUCUAAGUCC` | MDM1 | -0.04905 |
| `UCUCUUGGAACUUUGCUUU` | ANXA13 | -0.4197 |

Some entries from above, unchanged:

{"sirna": "AUAGGUACUCGCGAUGUCC", "target gene": "NEDD4L", "seed-corrected z-score": "-0.06401"}
{"sirna": "UGCAUCACCAUGGUCUCCU", "target gene": "KLHL21", "seed-corrected z-score": "-0.8313"}
{"sirna": "UAAGUUGAGGGCAUUAUAG", "target gene": "FBXO21", "seed-corrected z-score": "0.345"}